Experimental data: the supplement of paper PMC3334620
The full ranking holds about 33,000 sequences; the median of “E-score (-0.5 to 0.5)” is about -0.0059, and the highest 2% start at about 0.26. The list shows a part of the results.

molecular target: T1, Cin5 (UniProt P40917); test: PBM E-score (8-mer binding enrichment) (E-score (-0.5 to 0.5)); higher = stronger / more preferred TF binding; details: protein concentration: 100 nM; construct: GST-full length
T1 sequence: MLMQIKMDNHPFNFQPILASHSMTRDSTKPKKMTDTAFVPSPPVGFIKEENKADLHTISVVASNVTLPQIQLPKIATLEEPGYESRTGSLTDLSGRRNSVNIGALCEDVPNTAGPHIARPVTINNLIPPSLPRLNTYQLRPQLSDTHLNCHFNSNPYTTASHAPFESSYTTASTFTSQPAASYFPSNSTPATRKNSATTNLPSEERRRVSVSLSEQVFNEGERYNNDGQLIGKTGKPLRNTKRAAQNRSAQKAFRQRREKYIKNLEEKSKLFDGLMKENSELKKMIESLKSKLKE
Summary of the method: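 E-scores (a modified Wilcoxon-Mann-Whitney statistic) were assigned by the Universal PBM Analysis Suite to every ungapped eight-base word pooled with its reverse complement. The input came from universal all-10-mer Agilent arrays made double-stranded by primer extension and probed with GST-tagged yeast transcription factors at about 100-200 nM. Fluorescent anti-GST detected bound protein, and masliner normalised the scans.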

Sequence	PBM E-score
CTTTCTTA	0.0341
AAGATCCA	-0.0415
CTTCCGGA	-0.0412
AACAAGTA	0.0249
CCCTCCCA	0.106
AACCTCTG	-0.122
TGGCGCCA	0.015
ACTGGGTC	-0.227
ATGGTATA	0.21
GGAAAGAA	0.0776
TGCGCCAA	-0.0249
CGGGGTCA	-0.0205
CCTGGGAC	-0.269
AGTATACG	0.0533
AATTTACA	0.0594
CCCCTTAC	-0.131
CAATAGCA	-0.144
ACTACGCC	-0.108
ATAACATC	0.189
GCTTACGA	0.414
CGTCTCAA	0.189
AAAGAAAA	0.112
ATTCTAAC	0.0781
GTAATAGA	0.177
ACATTCAG	-0.0494

Sequence	PBM E-score
AAATAAAA	0.146
AGCCAGTA	-0.0197
TAGATATA	0.255
AATAACCA	0.0553
AATACAAC	0.236
GAGGAATC	-0.0894
CTTACCAC	0.0364
ATGATTAC	0.362
ATATAAAC	0.255
CGCACGGC	0.001
GGGTTTAA	-0.0116
AGTCGGCC	-0.115
GTTGCGAA	0.112
TCGGGCAA	-0.0455
AGACAGCG	-0.258
GTCGGTAA	-0.0358
TACAGCTA	-0.026
CGACTTGC	-0.0714
ACAATGAT	0.104
GTGAGGAA	-0.138
CGTGAAAC	-0.118
ACGCAAAT	-0.0291
GACATTAA	0.0285
CATGAGGA	0.102
CCCCACGA	-0.057

Sequence	PBM E-score
TCCACGAA	0.0641
AGCTCCTC	-0.271
CCGTGCCC	-0.272
AAACGAGT	0.139
AGTTTCAA	0.0759
CTCAATGC	-0.154
ATGTTGAA	0.229
AACGATGC	-0.189
CCACATGA	0.0875
GAAGTGAC	-0.0962
CCCAATTA	0.192
CGAAGGGC	-0.198
CTCACGTC	0.0887
CGGGACTA	-0.207
GAAACGAA	0.23
AAAATATG	0.208
ACGTTTAG	-0.0908
GCCAATTA	0.155
ATGCTTCG	-0.0239
CGTGTGTC	-0.0401
ACAGGATC	-0.169
AAATGATC	0.00639
CGGGCTCC	-0.345
CTACAGGA	-0.0551
CAGGACCG	-0.0844

Sequence	PBM E-score
GGCCTTAC	-0.103
AAAGATAA	0.195
CGGGCGGA	0.046
CTTATCAC	0.0488
GGATGCGA	-0.124
AGGAAACT	0.0384
ATTCCATC	0.251
ACCCTATA	-0.0767
ATGATAGC	0.269
AAAGCCCA	0.0381
GAAAGTCA	-0.0298
AAGAATTA	0.0191
ACCCGGAA	0.157
CTGAAGGC	-0.263
TATTTAGA	0.0382
GTCTAGAA	-0.0476
CATCCCCG	0.147
CAAAATTC	0.176
ATCTGGTC	0.0761
TGATGCAA	0.058
GACAAACA	0.097
TGCCGACA	0.0482
CCATTGTA	0.112
TACAAGCA	0.181
AATGCACT	0.135

Sequence	PBM E-score
CCCGAAAC	-0.00642
ACGTATAT	0.17
AATTAACG	0.0734
GCGTTAGA	-0.122
ATTACCTC	0.142
AACGCGAC	-0.0931
ATGCAAAG	0.0362
GGGCTTCA	-0.195
ATAGTCAG	0.0775
CAAACGCG	0.111
GCACCAGA	-0.0922
AGCCGCAA	-0.0364
CCGCTTTC	-0.108
ACAATAAT	0.267
CGACCTCG	0.0228
TCACGAGA	-0.0923
ACTGAAGC	-0.00573
CACTCCTG	-0.00638
AAGTCATC	-0.00719
AGAAGGCC	-0.126
AAGAACGG	-0.0706
CTGCCAAA	-0.065
CGATTCTA	-0.0351
AGTCCACT	-0.146
AAGAAGGT	0.00043

Sequence	PBM E-score
AAAAGTCC	-0.0209
CTACCGCC	-0.0561
CGATAAGC	-0.0158
TGGAGGAA	-0.129
AGATAGGG	-0.0638
AGACCAAG	0.0931
GAATGCAA	0.11
ACCGGTAC	-0.217
AATAATGA	0.151
GAAAATGA	0.154
ATGCGAAT	0.173
ACTCCGGA	0.189
AACGGATA	0.227
CCAGTCAA	-0.0335
AACCTTAT	-0.0545
ACGGGCAC	-0.193
CGCGAGGC	0.104
AATAGATC	0.204
CCTTAGCC	0.0505
TCTAAAGA	0.0418
CGTCCATA	0.0392
GCGGTATA	0.179
GGCCACCA	0.0556
CGGAATTA	0.201
AGAGCAAG	0.14

Sequence	PBM E-score
ACACGAGT	0.0613
GTGGCTAA	0.181
GGTACTAA	0.0479
ACAATCGT	-0.0859
ACGATCCC	0.00128
CCAAGCGG	-0.143
ACCTGATA	0.142
CCCGTTCA	-0.0227
CTATATAC	0.313
CCAACAGG	-0.247
AAAGGGGG	-0.389
TTGACAAA	0.151
GTTGCTAA	0.249
CGATCTAC	-0.0495
CCCTGTGA	-0.192
CGAACAGC	-0.168
CCTGTTAC	0.0877
CTGTGAAG	-0.109
GGAAGTTA	0.0956
ATTTCCCA	0.165
ATAACACG	0.127
AGGCATCC	-0.202
CCCCCCGG	-0.476
GGTTCATA	0.0818
AATCAAAC	0.326

Sequence	PBM E-score
AGAGATCC	0.0491
CCACTTAC	0.303
CTAGCCGC	0.0223
GGCGCGCC	0.117
ACTACAAT	0.218
ATTGCAAG	0.0775
AGATCACA	-0.0856
AGGCAGAA	0.0944
CATGTGGC	0.0278
CCCGAAAG	0.0417
AAGGCTAT	-0.0601
CCCCTCCA	-0.0611
AGATTCCC	0.0626
CTATAACA	-0.122
ACGATGGG	0.0354
CCTGGGGC	-0.319
AACTGCTC	0.0453
CGCTCTCC	-0.266
ACATGAAT	0.0776
CATCTGCC	-0.0681
TAATCAGA	0.231
CATTTCAC	0.0596
CTCCGCAC	-0.199
GCCCTCAC	-0.14
CCAGTCCG	-0.296

Sequence	PBM E-score
CCATTATC	0.0699
AACAGATC	0.13
ACGCGCCC	-0.0725
GTTGGCTA	0.0116
GGGTTACC	-0.182
GCTGCTAA	-0.0425
AATACAGG	0.143
CGTGCAAC	-0.0515
GTCTTAGA	-0.201
AGGCTTAT	0.152
ATAACGGA	0.227
ATAGCCTA	-0.0542
ACAACCCC	-0.0158
GATGGTAC	0.0499
CAATTGTA	0.0279
ATCAGATC	0.0499
CGTGGATA	0.0629
AACGAGTA	0.119
ACGTTCAG	-0.226
GCGGTACA	-0.0496
ATCCAGTC	0.068
AAGCGGTC	0.028
AGCACACT	0.108
AGACTACC	0.028
GCATAGCC	-0.283

Sequence	PBM E-score
ATCAAACC	0.212
CTTCGCTC	0.0176
GAAATCCA	0.147
CTGCCGTC	-0.172
CAGCTGGG	-0.0726
GGTTAATA	0.0958
GGGTGAAC	-0.11
CTGTTCGA	-0.276
CTAACGAA	-0.0791
ATTCCTCC	0.00636
AAGTGATT	0.156
CTGTTGCC	-0.133
GACTTTTA	-0.117
ATAGACCG	-0.117
GCAAAAGA	-0.0782
ACGATTAG	0.158
GTGTTTAA	0.0477
ATAGCCCG	-0.198
AGGGACTG	-0.221
ATACGCGG	0.0193
GCGTACTA	-0.0261
AAGACGAT	0.055
ATGAGCAA	0.0945
AGCGCGCC	-0.0229
AGGACAGC	-0.103

Sequence	PBM E-score
GACACCCC	-0.263
CACTAACC	0.00512
ACAAGTGA	-0.0377
CGAAGTGA	0.0593
GCACGAGC	-0.116
ACGTTCGG	-0.16
AGAAACAT	0.135
GCATAGAC	-0.205
AGGGACCA	-0.109
GCTCCGCC	-0.123
ACTGTTAG	-0.14
AGTCTACC	-0.13
AGAAACTC	-0.0376
CCGGTCAC	-0.152
CTCAACTC	0.0465
AGCGCACT	-0.0188
ACCATCGG	-0.108
AACGATCT	-0.0923
GCTACTCA	0.105
ATACAGGA	0.0489
ACCGCGTA	0.0207
CCAACGGA	-0.112
AAATCATG	0.16
CCGTAAAG	-0.0264
GGCGCCCA	-0.0459

Sequence	PBM E-score
CTGGTGGA	-0.16
GGAGCCCC	-0.299
CAAAGAGC	-0.134
CTTTTCAA	-0.0158
ATTCAGCA	0.0523
CGTAGACA	-0.149
TGCCCCAA	0.124
GAGGTTAC	-0.0187
CGCCGAGC	-0.119
CCTTGTGC	-0.301
GAAAATAC	0.0752
CAGTATAC	0.0487
AACGAATG	0.206
CAAATACG	0.0308
CGGGGTTC	-0.0898
GGGGGAAA	-0.0854
CTAAATGC	0.00209
AAAGGGAA	-0.112
CAACAGAA	-0.0337
ATTAGAAG	0.0844
AGGTTGCA	0.11
ATCCGAGG	-0.165
AAATCGAA	0.11
GATGGTTA	0.0172
CAGACAAG	-0.0421

Sequence	PBM E-score
CCAGGAGG	-0.262
CAGGCCAG	-0.14
ATGCGAAG	-0.0237
CCAAAATA	0.113
AATCGATG	0.182
AAAGGTAC	-0.0367
TCCCCCGA	-0.343
ATACTGAG	0.214
CATGTCAC	0.15
GCAAGTCC	-0.173
AACATGCC	-0.0633
CCGCTACA	0.00468
ATTACCAA	0.27
AAGGGCCG	-0.285
GGTACCCA	-0.31
CTCGGGCA	-0.0222
CGAGCCGA	-0.0217
ATGACTCC	-0.00817
CTTAGTGA	0.0718
AGACCATA	0.137
AAAGGGAT	-0.0211
GCTTACAA	0.248
AGCCTCGA	-0.0892
CTCTCCTC	-0.288
ACCCGCGG	0.236

Sequence	PBM E-score
CGTTCTAC	-0.0798
AGAAAGCC	-0.07
TACCCGCA	0.16
CAATGGAG	-0.0772
CAAGAAAA	0.114
AGTCACCG	-0.195
AGAAACCC	-0.0645
AGCAGCCA	0.0323
TAATGTAA	0.33
GACTTGAA	-0.109
CCCTGAAG	-0.132
CAACTACA	0.167
CCCTGGGA	-0.328
GCCAGCCA	-0.193
ATGTACCA	0.00112
CGGTGGAC	-0.104
GACATGGA	0.0278
CCTGGAGA	-0.184
CCTCCTCC	-0.278
